# Test results published in patent US20230184756A1, “BIOMATERIALS” (INSTITUTO DE MEDICINA MOLECULAR JOÃO LOBO ANTUNES, priority 2020, published 2023).
# Sequences of proteins named here, by UniProt entry; tags and fusion partners are left off. Residues count along the entry.
# UniProt P22629, 25-183: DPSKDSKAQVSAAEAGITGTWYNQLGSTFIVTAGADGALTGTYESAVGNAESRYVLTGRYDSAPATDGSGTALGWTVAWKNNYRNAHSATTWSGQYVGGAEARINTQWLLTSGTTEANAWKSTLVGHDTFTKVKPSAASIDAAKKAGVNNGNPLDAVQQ
# Not every detail of the peptide structures is certain; ends, links or a residue may be inferred. Peptide text beside a SMILES is read from it.
# What was measured:
# immobilized streptavidin = immobilized streptavidin (Streptomyces avidinii, UniProt P22629); test: Binding to surface-immobilized streptavidin by FTIR spectroscopy; settings: streptavidin covalently immobilized on germanium crystal, ATR-FTIR
# streptavidin = streptavidin (Streptomyces avidinii, UniProt P22629); test: Binding to free streptavidin by intrinsic tryptophan fluorescence; settings: 0.8 μM streptavidin; fibrils
# From the text: In terms of secondary structure, evaluated via Fourier Transform Infra Red (FITR) spectroscopy (FIG. 5b), the observations echo the results obtained with (non-biotinylated) STVIIE fibrils (confront with FIG. 3f). Addition, via a PEG9 linker, of a biotin moiety to STVIIE N-terminus results in biotin functionalized STVIIE amyloid fibrils. These fibrils show both the […] and the antiparallel cross β-sheet peaks, being quite similar to the spectra obtained with free (non-biotinylated) STVIIE. Then, the activity of the bioactive molecule (biotin) attached to the fibrils was tested, namely the ability to bind its target bridge element molecule (streptavidin), when free in solution (FIG. 5c-g). […] Briefly, the fluorescence intensity spectra of 0.8 μM streptavidin in solution, treated with buffer (FIG. 5c, leftmost graph), free biotin (FIG. 5c, second graph from the left), non-biotinylated free amyloid peptide (FIG. 5c, third from the left) or biotinylated amyloidogenic peptide fibrils (FIG. 5c, rightmost graph) were compared. A drop on the fluorescence signal (decreased quantum yield) accompanied by peak shifting towards the left (blue shift) indicates streptavidin binding to biotin (FIG. 5c). […] The addition of biotinylated peptide to streptavidin produces a similar blue shift of the fluorescence emission maximum (from 340 to 330 nm), as observed when free biotin is added. […]
# [1] = target: streptavidin linked to horseradish peroxidise (S-HRP) (Streptomyces avidinii, UniProt P22629); test: Dot blot detection of immobilized fibrils with streptavidin-HRP; settings: immobilized on membrane, treated with S-HRP
compound,measurement,setting,value
CC[C@H](C)[C@H](NC(=O)[C@@H](NC(=O)[C@@H](NC(=O)[C@@H](N)CO)[C@@H](C)O)C(C)C)C(=O)N[C@H](C(=O)N[C@@H](CCC(=O)O)C(=O)O)[C@@H](C)CC [STVIIE] (H-STVIIE-OH; N-terminus and C-terminus assumed),binding to immobilized streptavidin,immobilized streptavidin,lack of binding
same,binding to streptavidin free in solution,streptavidin,do not suffer peak shift or fluorescence intensity changes
same,dot blot signal of immobilized fibrils,[1],no signal
